No constants are given. Whether binding was seen depends on the method and setting. Binding seen in cells or lysates may run through a third protein. Some binding calls cover weakened binding; strength is not graded here. Tags and fused reporters may be left off the sequences shown.
Target: ACKR1-YFP (human) (UniProt Q16570)
Assay: FRET or BRET

B1: ACKR1-YFP (receptor, UniProt Q16570 1-336)
chain: MGNCLHRAELSPSTENSSQLDFEDVWNSSYGVNDSFPDGDYGANLEAAAPCHSCNLLDDSALPFFILTSVLGILASSTVLFMLFRPLFRWQLCPGWPVLAQLAVGSALFSIVVPVLAPGLGSTRSSALCSLGYCVWYGSAFAQALLLGCHASLGHRLGAGQVPGLTLGLTVGIWGVAALLTLPVTLASGASGGLCTLIYSTELKALQATHTVACLAIFVLLPLGLFGAKGLKKALGMGPGPWMNILWAWFIFWWPHGVVLGLDFLVRSKLLLLSTCLAQQALDLLLNLAEALAILHCVATPLLLALFCHQATRTLLPSLPLPEGWSSHLDTLGSKS
binding: binds

— publication doi:10.1101/2021.02.08.430206 (bioRxiv, 2021)
